{"source": "PubChem BioAssay AID1259254 (NCATS, 2017)", "screen": "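Gene knock-downs that lead to re-replication, shown by excess G2 DNA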 (primary screen)", "system": "human HCT116 colorectal cancer cells", "reagent": "single siRNA against human genes", "duration": "3 days", "detection": "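Nuclei stained with Hoechst and imaged; cell-cycle phase assigned by DNA content; G2 share scaled per plate, non-targeting siRNA 0%, GMNN siRNA 100%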", "scale": "G2 robust z-score: higher = more G2 cells, more excess DNA replication", "call rule": "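Active siRNAs have a G2 robust z of 5 or more median absolute deviations over the median, which in these data means about 38% or higher of GMNN control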", "note": "This is an unselected part of about 59,000 reagents. Over the whole deposit, about 1,550 (2.6%) were called active. 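G2 share is only a proxy for re-replication; each gene was hit by three separate siRNAs, and active genes were retested.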 Unmarked entries are inactive. The numbers tell different reagents against one gene apart. Not all columns of the deposit are shown. Not given: the amount of reagent."}
{"Target gene":"FABP1 (GeneID 2168)","reagent":1,"G2 robust z-score":0.0596}
{"Target gene":"FABP1 (GeneID 2168)","reagent":2,"G2 robust z-score":0.0358}
{"Target gene":"FABP1 (GeneID 2168)","reagent":3,"G2 robust z-score":2.09}
{"Target gene":"C11orf87 (GeneID 399947)","reagent":1,"G2 robust z-score":0.546}
{"Target gene":"C11orf87 (GeneID 399947)","reagent":2,"G2 robust z-score":1.32}
{"Target gene":"C11orf87 (GeneID 399947)","reagent":3,"G2 robust z-score":-1.51}
{"Target gene":"CCL23 (GeneID 6368)","reagent":1,"G2 robust z-score":-0.273}
{"Target gene":"CCL23 (GeneID 6368)","reagent":2,"G2 robust z-score":1.52}
{"Target gene":"CCL23 (GeneID 6368)","reagent":3,"G2 robust z-score":3.3}
{"Target gene":"SEPTIN4 (GeneID 5414)","reagent":1,"G2 robust z-score":2.51}
{"Target gene":"SEPTIN4 (GeneID 5414)","reagent":2,"G2 robust z-score":-0.965}
{"Target gene":"SEPTIN4 (GeneID 5414)","reagent":3,"G2 robust z-score":1.87}
{"Target gene":"SEPTIN4 (GeneID 5414)","reagent":4,"G2 robust z-score":0.151}
{"Target gene":"SEPTIN4 (GeneID 5414)","reagent":5,"G2 robust z-score":4.66}
{"Target gene":"SEPTIN4 (GeneID 5414)","reagent":6,"G2 robust z-score":1.11}
{"Target gene":"CNOT9 (GeneID 9125)","reagent":1,"G2 robust z-score":-0.547}
{"Target gene":"CNOT9 (GeneID 9125)","reagent":2,"G2 robust z-score":0.00961}
{"Target gene":"CNOT9 (GeneID 9125)","reagent":3,"G2 robust z-score":-0.678}

A stretch taken from the entries so far, as a working copy:
{"Target gene":"CNOT9 (GeneID 9125)","reagent":2,"G2 robust z-score":0.00961}
{"Target gene":"CNOT9 (GeneID 9125)","reagent":3,"G2 robust z-score":-0.678}

Continued.
{"Target gene":"OR10C1 (GeneID 442194)","reagent":1,"G2 robust z-score":-0.155}
{"Target gene":"OR10C1 (GeneID 442194)","reagent":2,"G2 robust z-score":0.992}
{"Target gene":"OR10C1 (GeneID 442194)","reagent":3,"G2 robust z-score":0.702}
{"Target gene":"RDH14 (GeneID 57665)","reagent":1,"G2 robust z-score":0.132}
{"Target gene":"RDH14 (GeneID 57665)","reagent":2,"G2 robust z-score":0.651}
{"Target gene":"RDH14 (GeneID 57665)","reagent":3,"G2 robust z-score":-0.759}
{"Target gene":"PIWIL1 (GeneID 9271)","reagent":1,"G2 robust z-score":-0.269}
{"Target gene":"PIWIL1 (GeneID 9271)","reagent":2,"G2 robust z-score":2.76}
{"Target gene":"PIWIL1 (GeneID 9271)","reagent":3,"G2 robust z-score":0.392}
{"Target gene":"LOC730961 (retired record) (GeneID 730961)","reagent":1,"G2 robust z-score":0.997}
{"Target gene":"LOC730961 (retired record) (GeneID 730961)","reagent":2,"G2 robust z-score":-1.16}
{"Target gene":"LOC730961 (retired record) (GeneID 730961)","reagent":3,"G2 robust z-score":-0.932}
